# The exact form of at least one protein or probe is not confirmed. No signal at the amounts used counts as a negative.
# Test system: Human immunoglobulin G (HIgG) (Homo sapiens)
# Assay: binding assay
# Conditions: 5'-SH (thiol), immobilised on Au segment of nanomotor; selectivity control, 20 nM HIgG in PBS; methylene blue release fluorescence; label: methylene blue (non-covalently adsorbed); single-stranded DNA
sequence,measurement,value
TTTCCCGTCTTCCAGACAAGAGTGCAGGG [anti-VEGF DNA aptamer],binding result,no binding

# Source: patent US20180087116, “METHODS AND BIOSENSORS FOR TUMOR DETECTION” (published 2018)
